From PMC10835877
Results are given in words; binding and its absence hold for the method and conditions named. Binding seen in cells or lysates may run through a third protein. Some binding calls cover weakened binding; strength is not graded here.

Amino acid sequences for entries named in this document (tags omitted).
UniProt Q62120: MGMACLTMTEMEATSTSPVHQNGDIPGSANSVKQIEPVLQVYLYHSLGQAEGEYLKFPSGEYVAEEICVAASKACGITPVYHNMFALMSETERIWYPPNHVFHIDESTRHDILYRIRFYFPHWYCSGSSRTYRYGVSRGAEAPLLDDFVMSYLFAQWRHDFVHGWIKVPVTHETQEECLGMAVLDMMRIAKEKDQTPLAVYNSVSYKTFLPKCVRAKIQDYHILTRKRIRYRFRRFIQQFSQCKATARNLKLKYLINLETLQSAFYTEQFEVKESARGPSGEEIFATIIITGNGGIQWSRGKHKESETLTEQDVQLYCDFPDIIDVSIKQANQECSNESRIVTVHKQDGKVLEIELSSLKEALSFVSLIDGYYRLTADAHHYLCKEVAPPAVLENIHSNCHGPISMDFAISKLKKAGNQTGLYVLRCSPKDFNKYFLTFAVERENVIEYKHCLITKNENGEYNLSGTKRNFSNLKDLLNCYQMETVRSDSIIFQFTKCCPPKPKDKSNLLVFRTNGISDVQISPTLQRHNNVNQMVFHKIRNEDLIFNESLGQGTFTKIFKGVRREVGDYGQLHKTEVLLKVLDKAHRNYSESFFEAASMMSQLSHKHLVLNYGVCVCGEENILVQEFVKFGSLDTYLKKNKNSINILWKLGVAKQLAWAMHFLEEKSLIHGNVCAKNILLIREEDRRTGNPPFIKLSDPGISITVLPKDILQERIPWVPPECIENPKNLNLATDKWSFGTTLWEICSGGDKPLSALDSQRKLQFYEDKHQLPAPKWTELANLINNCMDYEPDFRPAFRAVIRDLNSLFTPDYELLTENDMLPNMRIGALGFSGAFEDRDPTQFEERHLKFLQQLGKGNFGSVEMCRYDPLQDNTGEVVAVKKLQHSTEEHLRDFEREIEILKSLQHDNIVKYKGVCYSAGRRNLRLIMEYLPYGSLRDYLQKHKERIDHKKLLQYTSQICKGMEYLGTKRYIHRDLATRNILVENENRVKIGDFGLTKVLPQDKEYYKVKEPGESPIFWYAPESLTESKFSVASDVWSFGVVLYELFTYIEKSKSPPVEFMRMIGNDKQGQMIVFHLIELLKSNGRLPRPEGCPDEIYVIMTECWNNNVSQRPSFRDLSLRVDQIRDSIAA

Target: T1, signal transducer and activator of transcription 1 (Stat1) (mouse (endogenous in primary peritoneal macrophages)) (UniProt P42225)
T1 sequence: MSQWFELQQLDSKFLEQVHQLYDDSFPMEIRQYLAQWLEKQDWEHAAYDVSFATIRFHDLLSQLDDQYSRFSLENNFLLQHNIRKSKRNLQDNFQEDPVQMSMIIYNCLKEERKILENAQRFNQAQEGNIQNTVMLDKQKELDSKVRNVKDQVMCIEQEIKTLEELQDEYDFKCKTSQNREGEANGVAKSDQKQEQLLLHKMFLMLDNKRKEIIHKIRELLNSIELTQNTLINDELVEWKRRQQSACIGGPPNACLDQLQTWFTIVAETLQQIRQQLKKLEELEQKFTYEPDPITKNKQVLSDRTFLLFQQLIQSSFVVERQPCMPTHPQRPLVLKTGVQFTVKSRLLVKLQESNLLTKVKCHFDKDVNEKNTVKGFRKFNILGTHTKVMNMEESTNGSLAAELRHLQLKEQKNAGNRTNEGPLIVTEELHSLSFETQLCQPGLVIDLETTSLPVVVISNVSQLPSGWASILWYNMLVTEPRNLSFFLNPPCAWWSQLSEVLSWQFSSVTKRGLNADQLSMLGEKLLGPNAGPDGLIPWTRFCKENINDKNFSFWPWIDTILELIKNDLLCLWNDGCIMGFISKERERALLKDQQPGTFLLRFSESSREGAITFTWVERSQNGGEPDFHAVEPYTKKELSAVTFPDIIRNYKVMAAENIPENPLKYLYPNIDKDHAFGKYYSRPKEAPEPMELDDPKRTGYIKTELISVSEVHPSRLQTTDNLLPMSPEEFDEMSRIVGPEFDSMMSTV
Assay: co-IP; anti-Stat1 antibody (IgG as control) on lysate of macrophages treated with Tet2 inhibitor BC339 or DMSO for 24 h and stimulated with 10 ng/mL IFN-γ for the indicated time; Tet2, Stat1, Jak1 and Jak2 detected by western blotting

Substance: Janus kinase 2 (Jak2) (from UniProt Q62120 1-1132)
- binding: binds
